No constants are given. Whether binding was seen depends on the method and setting. A result given as binding can be weak or reduced; the word gives no strength.
Molecular target: baboon L-selectin (on baboon leukocytes) (baboon)
Experiment: binding to leukocytes (e.g. FACS analysis)

B1: HuDreg 55 humanized anti-L-selectin antibody (antibody, human IgG4, kappa, V domains shown)
VH: EVQLVESGGGLVQPGGSLRLSCAASGFTFSTYAMSWVRQAPGKGLEWVASISTGGSTYYPDSVKGRFTISRDNAKNTLYLQMNSLRAEDTAVYYCARDYDGYFDYWGQGTLVTVSS
VL: DIQMTQSPSSLSASVGDRVTITCKASQSVDYDGDSYMNWYQQKPGKAPKLLIYAASNLESGIPSRFSGSGSGTDFTLTISSLQPEDFATYYCQQSNEDPWTFGQGTKVEIKR
binding: binds

Source: patent publication US20020098183A1 (published 2002)
